From patent US11702635B2, “Hematopoietic stem cell expansion method” (PLASTICELL LIMITED, priority 2017, dated 2023)

Tested on: UCB CD133+ cells (HSPC)
Assay: Ex vivo expansion of umbilical cord blood CD133+ cells, flow cytometry and cell counting
Format: cell-based, human
From the text: Human UCB units were collected with written informed pre-consent and ethical approval from Oxford and Berkshire National Research Ethical Committees and studies conducted with approval of the NHSBT research committee. UCB mononuclear cells (MNC) were isolated by density gradient centrifugation on lymphocyte separation medium 1077 (PAA Laboratories, Pasching, Austria; density<1.077 g/ml). CD133+ cells were isolated from the MNC with immunomagnetic beads (Miltenyi Biotec, Germany). After isolation, the cells were cryopreserved in 10% DMSO in FCS (fetal calf serum) and stored at −150° C. in aliquots of 1×10^5 cells/vial. Cells were analysed for the purity of the isolation with flow cytometry on a BD LSR II (BD Biosciences, CA) using CD34-APC, CD133-PE and the appropriate isotype controls (all Miltenyi Biotec). […]
The next day cells were harvested from the plates counted, and seeded into 24 well Nanex plates (Compass Biomedical) or standard tissue culture treated plates at 2500 cells/well in 1 mL basal media (StemSpan ACF with 100 ng/mL SCF, 100 ng/mL FLT3LG and 20 ng/mL TPO) containing an HDAC inhibitor (for most experiments scriptaid was used at a concentration of 1 μM). […]
Cell number was measured using flow cytometry with the aid of counting beads (CountBright beads Life Technologies).

Structure (SMILES): Cc1ccc(C(=O)NCCCCCC(=O)Nc2ccccc2N)cc1 [RG2833]
- fold expansion of total nucleated cells (TNC) compared to cells grown in basal media (5 day culture, HDAC inhibitor with cytokines, with or without WR1065 (100 μM), vs basal media containing cytokines): increase
- fold expansion of HSC compared to cells grown in basal media (expansion protocol as defined above, HDAC inhibitor with or without WR1065): doubled
